The supplement of paper PMC10849652
The list shows a part of the results.

By UniProt entry, the sequences of proteins in these tests, tags left out. Where a name states a change or a piece, a line headed by the entry shows the natural chain unless it says otherwise.
UniProt P58511: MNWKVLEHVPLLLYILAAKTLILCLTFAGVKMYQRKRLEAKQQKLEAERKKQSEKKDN
UniProt Q9H7B4: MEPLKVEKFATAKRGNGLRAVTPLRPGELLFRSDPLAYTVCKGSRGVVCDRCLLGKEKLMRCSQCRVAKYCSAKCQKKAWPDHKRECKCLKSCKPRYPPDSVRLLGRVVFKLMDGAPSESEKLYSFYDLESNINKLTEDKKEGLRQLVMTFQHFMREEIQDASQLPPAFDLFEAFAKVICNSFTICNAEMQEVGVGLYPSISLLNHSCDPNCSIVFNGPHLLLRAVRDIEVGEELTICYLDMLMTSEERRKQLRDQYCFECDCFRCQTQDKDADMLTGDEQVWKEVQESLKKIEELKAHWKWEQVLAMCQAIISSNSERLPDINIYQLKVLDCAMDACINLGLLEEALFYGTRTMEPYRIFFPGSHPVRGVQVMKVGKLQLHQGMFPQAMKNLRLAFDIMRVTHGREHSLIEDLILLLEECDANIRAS
UniProt Q53HV7: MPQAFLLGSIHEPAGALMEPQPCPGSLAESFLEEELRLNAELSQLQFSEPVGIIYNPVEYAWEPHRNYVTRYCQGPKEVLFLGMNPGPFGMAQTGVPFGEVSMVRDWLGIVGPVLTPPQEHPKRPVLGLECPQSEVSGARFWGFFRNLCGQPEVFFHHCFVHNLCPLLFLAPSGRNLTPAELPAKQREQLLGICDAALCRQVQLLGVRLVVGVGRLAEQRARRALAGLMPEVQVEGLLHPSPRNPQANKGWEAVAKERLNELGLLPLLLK
UniProt Q9Y2E8: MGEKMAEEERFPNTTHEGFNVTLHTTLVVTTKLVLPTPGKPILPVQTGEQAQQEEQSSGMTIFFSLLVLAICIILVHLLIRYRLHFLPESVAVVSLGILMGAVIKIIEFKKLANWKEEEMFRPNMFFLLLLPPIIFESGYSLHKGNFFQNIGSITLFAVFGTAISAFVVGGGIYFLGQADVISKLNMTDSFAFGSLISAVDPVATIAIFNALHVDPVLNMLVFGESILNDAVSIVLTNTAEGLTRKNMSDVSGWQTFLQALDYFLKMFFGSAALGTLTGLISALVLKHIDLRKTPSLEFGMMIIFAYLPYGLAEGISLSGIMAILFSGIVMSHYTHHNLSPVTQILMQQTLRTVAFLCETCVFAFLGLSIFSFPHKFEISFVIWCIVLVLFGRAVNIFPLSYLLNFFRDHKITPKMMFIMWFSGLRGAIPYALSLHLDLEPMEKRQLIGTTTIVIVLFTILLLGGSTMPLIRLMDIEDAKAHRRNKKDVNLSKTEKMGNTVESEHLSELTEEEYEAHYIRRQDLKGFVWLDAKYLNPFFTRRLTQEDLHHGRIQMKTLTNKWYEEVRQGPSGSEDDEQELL
UniProt O95219: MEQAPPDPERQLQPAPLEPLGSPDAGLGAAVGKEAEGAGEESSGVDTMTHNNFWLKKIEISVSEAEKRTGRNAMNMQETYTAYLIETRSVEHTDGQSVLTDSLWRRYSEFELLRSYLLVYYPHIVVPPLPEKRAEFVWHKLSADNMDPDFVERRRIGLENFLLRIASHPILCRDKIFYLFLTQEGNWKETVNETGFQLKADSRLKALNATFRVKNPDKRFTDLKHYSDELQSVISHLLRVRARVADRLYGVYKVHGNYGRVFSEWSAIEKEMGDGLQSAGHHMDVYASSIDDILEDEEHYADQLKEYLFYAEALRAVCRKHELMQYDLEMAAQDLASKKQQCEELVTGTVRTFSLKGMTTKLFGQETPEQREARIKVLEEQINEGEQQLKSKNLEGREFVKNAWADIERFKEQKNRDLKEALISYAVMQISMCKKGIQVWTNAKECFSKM
UniProt P08294: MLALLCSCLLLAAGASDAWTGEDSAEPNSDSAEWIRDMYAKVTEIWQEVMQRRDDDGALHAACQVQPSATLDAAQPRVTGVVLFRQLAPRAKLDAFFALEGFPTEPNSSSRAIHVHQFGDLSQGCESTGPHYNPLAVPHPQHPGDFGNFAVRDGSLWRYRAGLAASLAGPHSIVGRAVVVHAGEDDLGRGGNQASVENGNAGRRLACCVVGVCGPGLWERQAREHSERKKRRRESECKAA
UniProt Q8N5G0: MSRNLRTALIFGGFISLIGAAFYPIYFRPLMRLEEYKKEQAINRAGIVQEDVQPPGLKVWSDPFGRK
UniProt Q92484: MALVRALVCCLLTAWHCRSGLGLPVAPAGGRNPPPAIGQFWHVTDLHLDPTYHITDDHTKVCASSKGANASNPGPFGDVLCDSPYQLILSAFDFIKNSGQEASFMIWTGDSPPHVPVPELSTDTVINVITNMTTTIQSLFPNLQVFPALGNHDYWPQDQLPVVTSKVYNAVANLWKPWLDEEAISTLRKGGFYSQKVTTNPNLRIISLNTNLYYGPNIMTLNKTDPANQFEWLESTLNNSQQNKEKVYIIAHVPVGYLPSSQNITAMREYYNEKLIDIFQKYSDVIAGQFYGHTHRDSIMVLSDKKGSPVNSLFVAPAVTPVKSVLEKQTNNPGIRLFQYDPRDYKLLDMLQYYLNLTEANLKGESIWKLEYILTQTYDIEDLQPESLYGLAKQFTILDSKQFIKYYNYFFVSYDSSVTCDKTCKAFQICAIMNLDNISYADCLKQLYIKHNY
UniProt P84022, whole entry, looked up: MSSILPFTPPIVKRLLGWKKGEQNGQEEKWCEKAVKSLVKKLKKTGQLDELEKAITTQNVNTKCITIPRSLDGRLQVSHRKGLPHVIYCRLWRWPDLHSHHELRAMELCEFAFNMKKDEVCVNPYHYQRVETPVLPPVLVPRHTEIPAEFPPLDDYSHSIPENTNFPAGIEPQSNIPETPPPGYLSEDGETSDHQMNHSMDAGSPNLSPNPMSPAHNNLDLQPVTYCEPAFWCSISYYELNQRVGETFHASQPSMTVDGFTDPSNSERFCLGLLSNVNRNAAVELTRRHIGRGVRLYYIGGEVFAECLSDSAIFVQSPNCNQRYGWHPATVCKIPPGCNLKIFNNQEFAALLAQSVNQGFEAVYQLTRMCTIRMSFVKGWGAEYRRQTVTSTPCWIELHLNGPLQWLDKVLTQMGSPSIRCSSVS
UniProt Q86UD5: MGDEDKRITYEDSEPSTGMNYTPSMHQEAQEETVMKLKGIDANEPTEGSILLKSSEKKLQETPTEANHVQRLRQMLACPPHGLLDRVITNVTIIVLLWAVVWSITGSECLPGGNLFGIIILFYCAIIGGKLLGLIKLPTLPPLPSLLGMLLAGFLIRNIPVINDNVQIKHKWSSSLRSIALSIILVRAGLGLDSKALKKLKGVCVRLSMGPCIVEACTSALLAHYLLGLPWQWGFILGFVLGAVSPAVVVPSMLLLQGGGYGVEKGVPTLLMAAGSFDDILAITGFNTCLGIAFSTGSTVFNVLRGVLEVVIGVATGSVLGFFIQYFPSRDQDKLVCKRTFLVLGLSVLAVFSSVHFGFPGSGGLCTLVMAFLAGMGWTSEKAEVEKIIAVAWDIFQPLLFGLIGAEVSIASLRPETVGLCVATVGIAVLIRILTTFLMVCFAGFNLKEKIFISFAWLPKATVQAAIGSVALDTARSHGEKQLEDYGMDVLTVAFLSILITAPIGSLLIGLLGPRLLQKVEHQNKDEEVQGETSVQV
UniProt P53814: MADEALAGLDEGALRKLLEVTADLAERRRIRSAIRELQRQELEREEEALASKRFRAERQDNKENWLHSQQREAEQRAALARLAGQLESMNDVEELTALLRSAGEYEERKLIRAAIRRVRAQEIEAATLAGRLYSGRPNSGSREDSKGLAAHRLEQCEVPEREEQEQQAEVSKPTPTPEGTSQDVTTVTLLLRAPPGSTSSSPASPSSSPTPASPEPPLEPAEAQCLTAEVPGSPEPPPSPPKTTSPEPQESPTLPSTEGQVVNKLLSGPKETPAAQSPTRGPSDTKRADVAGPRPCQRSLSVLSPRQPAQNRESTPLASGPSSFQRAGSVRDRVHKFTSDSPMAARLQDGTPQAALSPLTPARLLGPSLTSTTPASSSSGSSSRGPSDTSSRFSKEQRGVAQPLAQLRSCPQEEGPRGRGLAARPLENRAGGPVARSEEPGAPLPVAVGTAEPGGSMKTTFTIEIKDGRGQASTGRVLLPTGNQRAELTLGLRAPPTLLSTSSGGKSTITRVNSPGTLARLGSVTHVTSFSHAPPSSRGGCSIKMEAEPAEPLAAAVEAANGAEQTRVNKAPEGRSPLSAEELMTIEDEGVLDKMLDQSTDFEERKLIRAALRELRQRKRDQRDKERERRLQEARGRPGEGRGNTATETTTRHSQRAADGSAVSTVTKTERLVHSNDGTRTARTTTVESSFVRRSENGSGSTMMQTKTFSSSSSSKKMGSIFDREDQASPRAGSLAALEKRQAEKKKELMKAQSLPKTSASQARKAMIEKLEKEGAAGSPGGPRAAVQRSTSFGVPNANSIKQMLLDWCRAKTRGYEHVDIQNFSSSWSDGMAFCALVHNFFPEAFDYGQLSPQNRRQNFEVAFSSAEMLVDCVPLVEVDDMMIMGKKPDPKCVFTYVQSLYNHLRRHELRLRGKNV
UniProt O60504: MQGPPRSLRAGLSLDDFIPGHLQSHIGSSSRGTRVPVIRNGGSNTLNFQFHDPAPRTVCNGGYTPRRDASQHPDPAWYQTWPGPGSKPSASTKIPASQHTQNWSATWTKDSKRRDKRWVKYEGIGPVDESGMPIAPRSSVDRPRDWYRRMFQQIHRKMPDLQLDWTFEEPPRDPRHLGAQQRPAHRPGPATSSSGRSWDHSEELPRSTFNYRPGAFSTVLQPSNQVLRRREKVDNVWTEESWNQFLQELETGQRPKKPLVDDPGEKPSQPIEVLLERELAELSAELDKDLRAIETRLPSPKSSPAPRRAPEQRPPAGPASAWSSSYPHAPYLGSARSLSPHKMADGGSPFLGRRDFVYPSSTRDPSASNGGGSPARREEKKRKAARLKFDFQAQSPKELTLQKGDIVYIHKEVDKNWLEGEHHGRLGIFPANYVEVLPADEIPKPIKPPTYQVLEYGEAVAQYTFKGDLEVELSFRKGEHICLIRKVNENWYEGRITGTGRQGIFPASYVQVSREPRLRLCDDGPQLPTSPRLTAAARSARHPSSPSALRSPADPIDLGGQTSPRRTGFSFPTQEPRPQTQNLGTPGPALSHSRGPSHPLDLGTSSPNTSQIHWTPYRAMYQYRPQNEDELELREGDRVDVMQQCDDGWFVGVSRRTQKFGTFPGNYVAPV

Key:
Test in all cases: log2 fold change, soluble protein after heating vs DMSO (PISA); higher = thermal stabilisation; K562 cells, 10 uM, 30 min; active = over 0.2 and 3.5 SD of the protein, either way, in both replicates (recomputed)
[1] = compound: COC1=CC=C(C=C1)CN2C=CC3=C2C=C(C=C3)C(=O)NO
In short: (§1)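 K562 cells at 2×10^6 cells/mL were exposed to 10 μM compound for 30 min, then aliquots were heated for 3 min across 48°C-58°C, pooled, and extracted in PBS containing 0.5% NP-40 at 4°C. The supernatant after 21,000xg for 90 min was taken as soluble protein and measured by TMTpro 16plex LC-MS/MS with channel sums equalised. Thermal stability is reported relative to control samples, with values from duplicates. Fold changes are given on a log2 scale.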

[2] = compound: COc1cc2ncnc(Nc3ccc(F)c(Cl)c3)c2cc1OCCCN1CCOCC1 [gefitinib]
In short: as §1

[3] = compound: C[C@@H](Oc1cc(-c2cnn(C3CCNCC3)c2)cnc1N)c1c(Cl)ccc(F)c1Cl [crizotinib]
In short: as §1

[4] = compound: Cc1ccc(-n2nc(C(C)(C)C)cc2NC(=O)Nc2ccc(OCCN3CCOCC3)c3ccccc23)cc1 [doramapimod]
In short: as §1

[5] = compound: CON(C)C(=O)N1N=C(c2cc(F)ccc2F)S[C@@]1(CCCN)c1ccccc1 [filanesib]
In short: as §1

[6] = compound: CO[C@H]1C[C@@H]2CC[C@@H](C)[C@@](O)(O2)C(=O)C(=O)N2CCCC[C@H]2C(=O)O[C@H]([C@H](C)C[C@@H]2CC[C@H](n3cnnn3)[C@H](OC)C2)CC(=O)[C@H](C)/C=C(\C)[C@@H](O)[C@@H](OC)C(=O)[C@H](C)C[C@H](C)/C=C/C=C/C=C/1C [zotarolimus]
In short: as §1

[7] = compound: COc1cc(C(=O)O)ccc1NC(=O)[C@@H]1N[C@@H](CC(C)(C)C)[C@](C#N)(c2ccc(Cl)cc2F)[C@H]1c1cccc(Cl)c1F [idasanutlin]
In short: as §1

[8] = compound: COc1cc(Nc2ncc3c(n2)-c2ccc(Cl)cc2C(c2c(F)cccc2OC)=NC3)ccc1C(=O)O [alisertib]
In short: as §1

[9] = compound: COc1cc2nc(-c3cc(F)ccc3O)nc(N[C@@H]3CNC[C@H]3C(C)(C)O)c2cc1OC
In short: as §1

[10] = compound: COc1cccc2cc(-c3nc([C@H]4CC[C@H](C(=O)O)CC4)n4ncnc(N)c34)[nH]c12
In short: as §1

[11] = compound: CS(=O)(=O)CCNCc1ccc(-c2ccc3ncnc(Nc4ccc(OCc5cccc(F)c5)c(Cl)c4)c3c2)o1 [lapatinib]
In short: as §1

[12] = compound: CS(=O)(=O)N1CCN(Cc2cc3nc(-c4cccc5[nH]ncc45)nc(N4CCOCC4)c3s2)CC1 [pictilisib]
In short: as §1

[13] = compound: CS(=O)(=O)c1ccc(-c2cnc(N)c(C(=O)Nc3ccccc3)n2)cc1
In short: as §1

[14] = compound: C[C@@H]1COCCN1C2=NC(=NC(=C2)C3(CC3)S(=O)(=O)C)C4=C5C=CNC5=CC=C4
In short: as §1

[15] = compound: C[C@H](C1=CC=C(C=C1)C(=O)NC2=C3C=CNC3=NC=C2)N
In short: as §1

[16] = compound: C[C@H](Nc1ncnc2nc[nH]c12)c1cc2cccc(Cl)c2c(=O)n1-c1ccccc1 [duvelisib]
In short: as §1

[17] = compound: Cc1cc(Nc2cc(CN3CCOCC3)c3nc(C)c(Cc4ccc(Cl)cc4F)n3n2)n[nH]1 [gandotinib]
In short: as §1

[18] = compound: Cc1cc(Nc2cc(N3CCN(C)CC3)nc(Sc3ccc(NC(=O)C4CC4)cc3)n2)n[nH]1 [tozasertib]
In short: as §1

[19] = compound: Cc1cc(SCc2sc(-c3ccc(C(F)(F)F)cc3)nc2C)ccc1OCC(=O)O
In short: as §1

[20] = compound: Cc1ccc(C(=O)N(CCCN)[C@@H](c2nc3cc(Cl)ccc3c(=O)n2Cc2ccccc2)C(C)C)cc1 [ispinesib]
In short: as §1

Measured: log2 fold change

SMIM11A (UniProt P58511)
inactive: [1] -0.131 | [2] -0.153 | [3] 0.267 | [4] 0.034

SMYD3 (UniProt Q9H7B4)
inactive: [5] 0.051 | [6] 0.137 | [7] -0.015 | [8] 0.046 | [9] 0.065 | [2] 0.098 | [10] -0.052 | [11] 0.005 | [12] 0.087 | [13] 0.229 | [14] -0.103 | [15] 0.223 | [16] -0.062 | [17] -0.011 | [18] 0.214 | [19] 0.22 | [20] -0.096

SMUG1 (UniProt Q53HV7)
inactive: [5] 0.03 | [8] -0.151 | [2] 0.086 | [10] 0.077 | [13] -0.09

SLC9A8 isoform 2 (UniProt Q9Y2E8)
inactive: [5] -0.046 | [6] 0.055 | [7] 0.028 | [8] 0.011 | [9] -0.095 | [2] 0.063 | [10] 0.039 | [11] 0.031 | [13] 0.028 | [14] 0.02 | [15] -0.102 | [16] 0.032 | [18] -0.119 | [19] -0.029

SNX4 (UniProt O95219)
inactive: [6] 0.044 | [12] 0.132 | [15] 0.192 | [17] -0.058 | [20] -0.404

SMU1 isoform 2 (UniProt Q2TAY7)
inactive: [1] 0.497 | [3] -0.129 | [4] 0.243

SOD3 (UniProt P08294)
inactive: [5] -0.047 | [6] -0.076 | [7] -0.003 | [8] 0.018 | [9] 0.301 | [10] 0.123 | [11] -0.015 | [12] 0.109 | [13] 0.109 | [15] 0.013 | [16] 0.067 | [17] -0.024 | [18] -0.033 | [19] -0.065

SMIM20 isoform 2 (UniProt Q8N5G0)
inactive: [5] 0.093 | [6] -0.037 | [7] 0.095 | [8] -0.056 | [9] 0.024 | [2] 0.057 | [10] 0.091 | [11] -0.044 | [12] -0.044 | [13] -0.014 | [14] 0.126 | [15] 0.019 | [17] 0.068 | [19] -0.068 | [20] 0.089

SMPDL3A (UniProt Q92484)
inactive: [14] 0.159 | [16] -0.153 | [18] -0.071 | [19] 0.015

SMAD3 (UniProt P84022)
inactive: [6] -0.056 | [7] 0.075 | [9] 0.015 | [11] -0.019 | [12] -0.228 | [15] 0.172 | [16] 0.041 | [17] 0.07 | [18] 0.089 | [19] 0.088 | [20] -0.216

SLC9B2 (UniProt Q86UD5)
inactive: [14] -0.016

SMTN isoform 6 (UniProt P53814)
inactive: [5] -0.416 | [9] 0.009 | [11] 0.007 | [13] -0.346 | [14] -0.014 | [18] 0.115

SORBS3 (UniProt O60504)
inactive: [2] 0.119 | [12] -0.052 | [14] 0.151 | [17] 0.072
